Assay results: PubChem BioAssay AID493014 (National Center for Advancing Translational Sciences (NCATS), 2011)
This is one part of the list. Shown are side measurements of this screen, not its main read-out; they come without a call. Most of these compounds were active or inconclusive in the main read-out, so they are no random draw. Words in brackets tell the shape of the fitted curve; partial curves, single points and poor fits give uncertain potencies.

Assay: qHTS Assay to Find Inhibitors of Chronic Active B-Cell Receptor Signaling
Settings: ABC-DLBCL IkBa-CBG/CBR reporter, luminescence ratio (green luciferase fused to IkBa over red control in TMD8 lymphoma cells), 4 h
In short: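 TMD8 ABC-DLBCL cells carrying doxycycline-inducible green luciferase fused to IkappaBalpha plus unfused red luciferase were exposed to compounds (up to 46 uM) for 4 hrs at 37C. Activity came from the overlap-corrected green/red luminescence ratio.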

[1] = measured here: CBR red luminescence, cell number
[2] = measured here: IkBa-CBG green luminescence

SMILES	AC50 [1]	AC50 [2]
Cc1nc(/N=C(\N)NC(=O)c2ccccc2)nc2ccccc12	0.0517 µM [falling, full curve]	–
N#CCC(=O)N/N=C/c1ccc(OCC(=O)Nc2ccc(F)cc2)cc1	11.2 µM [rising, partial curve, poor fit]	–
CCCCn1nc(C(=O)Nc2cccc(C(=O)NC3CC3)c2)c2ccccc2c1=O	29.1 µM [falling, single point]	–
O=C(NCc1cccs1)c1cc2ccccc2o1	10 µM [falling, partial curve]	–
CC(O)CNc1nc2c(c(=O)n(C)c(=O)n2C)n1Cc1cccc(Br)c1 (configuration not stated)	35.5 µM [falling, single point]	–
CCCN(CCC)CCNC(=O)C1CCN(Cc2nc(-c3ccc(Cl)cc3)oc2C)CC1	11.2 µM [falling, partial curve, poor fit]	–
CCOc1ccc(N=NC2C(=O)N(C(N)=S)N=C2C)cc1 (configuration not stated)	22.4 µM [rising, single point]	–
CCNS(=O)(=O)c1ccc(NC(=O)c2ccccc2OCC)cc1	1.64 µM [rising, partial curve, poor fit]	–
CC(=O)Nc1cccc(C(=O)N/N=C/c2cccc(C)n2)c1	35.5 µM [falling, single point]	–
COc1ccccc1NS(=O)(=O)c1cccc(C(=O)NCC(c2ccco2)N2CCCC2)c1 (configuration not stated)	5.8 µM [falling, single point]	–
COc1ccc(-c2nc(SCc3ccccc3)n(C(=O)c3ccco3)n2)cc1	8.2 µM [rising, partial curve, poor fit]	–
COc1cc(/C=N/Nc2nc(-c3ccc(S(=O)(=O)N(C)C)cc3)cs2)ccc1O	8.91 µM [falling, partial curve, poor fit]	–
Cc1ccc(C)c(NS(=O)(=O)c2cc(C(=O)N3CCc4ccccc4C3)ccc2Cl)c1	11.2 µM [falling, single point]	–
NC(=O)CCC(NC(=S)Nc1ccccc1)C(=O)O (configuration not stated)	14.1 µM [rising, partial curve, poor fit]	–
CCC(=O)c1ccc(OCC(=O)Nc2nc(C)cs2)cc1	13 µM [falling, single point]	–
COc1ccc(C(=S)N2CCOCC2)cc1OS(=O)(=O)c1ccccc1[N+](=O)[O-]	29.1 µM [rising, partial curve, poor fit]	–
O=C(NC1CCCCC1)N1CCN(c2ccccc2)CC1	23.1 µM [falling, partial curve]	–
O=C1NC(c2ccccc2)=C(c2nc3ccccc3s2)C(c2ccc(F)cc2)N1 (configuration not stated)	11.2 µM [falling, partial curve]	–
CCSc1nc2nn(-c3ccccc3)c(=O)c-2c2n1CCCCC2	0.092 µM [falling, full curve, poor fit]	–
CC(=O)c1sc(NC(=O)C2CCN(C(=O)c3ccc(F)cc3)CC2)nc1-c1ccccc1	1.3 µM [falling, partial curve, poor fit]	–

SMILES	AC50 [1]	AC50 [2]
CCn1c2ccccc2c2cc(NC(=O)CSc3nnc(-c4ccccc4)o3)ccc21	29.1 µM [rising, single point]	–
O=C(CCSc1nnc(-c2ccncc2)o1)Nc1ccccc1	2.59 µM [falling, partial curve, poor fit]	–
CCn1c(=O)c(C(=O)NCc2ccccn2)c(O)c2ccccc21	8.91 µM [falling, partial curve]	–
CC(NC(=O)CCNS(=O)(=O)c1ccccc1)c1ccccc1 (configuration not stated)	35.5 µM [falling, single point]	–
COc1ccccc1/C=C/C(=O)OC(C)CN1CCOCC1 (configuration not stated)	0.631 µM [rising, full curve, poor fit]	–
CCCCOc1ccc2c(C)cc(=O)oc2c1OCCCC	18.4 µM [rising, partial curve]	23.1 µM [falling, partial curve, poor fit]
Cc1[nH]c2ccccc2c1C(=O)CSc1n[nH]c(N)n1	35.5 µM [falling, single point]	–
Cc1cn(-c2cc(C(=O)Nc3ccc(C)c(NC(=O)C(=O)c4c[nH]c5ccccc45)c3)cc(C(F)(F)F)c2)cn1	1.78 µM [falling, full curve, poor fit]	–
Cc1sc2nc(SCc3ccc(C(=O)O)cc3)n(Cc3ccco3)c(=O)c2c1C	6.31 µM [falling, full curve, poor fit]	–
CC1=NN(C(N)=S)C(=O)C1N=Nc1ccc([N+](=O)[O-])cc1 (configuration not stated)	1.26 µM [falling, partial curve]	1 µM [falling, full curve, poor fit]
c1ccc([C@H]2CN3C(=N2)Sc2ccccc23)cc1	16.4 µM [falling, single point]	–
CCc1ccc(/C=N/NC(=O)c2c[nH]c3ccccc23)s1	16.4 µM [falling, single point]	–
CCOc1ccc(NC(=S)c2ccncc2)cc1	29.1 µM [rising, single point]	–
O=C(/C=C/c1ccco1)N1CCc2ccccc21	15.8 µM [falling, single point]	–
O=C(CSc1ncnc2sc3c(c12)CCCC3)N1CCC(c2noc3ccc(F)cc23)CC1	2.06 µM [falling, single point]	–
CC1(C)Cc2c(sc3c2c(=N)n(Cc2ccco2)c(=O)n3CC(=O)Nc2cccc(Cl)c2)CO1	7.94 µM [falling, partial curve, poor fit]	–
COc1ccc(CC(=O)Nc2nnc(C(C)C)s2)cc1OC	22.4 µM [rising, single point]	–
CCOc1cc(-c2c(C)c(CC)nc(N)c2C#N)ccc1O	7.08 µM [falling, partial curve, poor fit]	–
Cc1cc(N/N=C/c2ccc(O)cc2)c2cccc(C)c2n1	35.5 µM [falling, single point]	–
N#C/C(=C\c1ccc(O)c(O)c1)C(=O)NCCCc1ccccc1	8.91 µM [falling, partial curve]	–

Single records (already shown). Values in the order: AC50 [1] | AC50 [2]
Cc1sc2nc(SCc3ccc(C(=O)O)cc3)n(Cc3ccco3)c(=O)c2c1C as listed: 6.31 µM [falling, full curve, poor fit] | –
CCOc1cc(-c2c(C)c(CC)nc(N)c2C#N)ccc1O as listed: 7.08 µM [falling, partial curve, poor fit] | –
N#C/C(=C\c1ccc(O)c(O)c1)C(=O)NCCCc1ccccc1 as listed: 8.91 µM [falling, partial curve] | –
